From article PMC9496679 come the findings set out here.

Amino acid sequences for entries named in this document (tags omitted). A change or cut given only in a name is not applied to a line headed by its entry.
UniProt Q9UKV5: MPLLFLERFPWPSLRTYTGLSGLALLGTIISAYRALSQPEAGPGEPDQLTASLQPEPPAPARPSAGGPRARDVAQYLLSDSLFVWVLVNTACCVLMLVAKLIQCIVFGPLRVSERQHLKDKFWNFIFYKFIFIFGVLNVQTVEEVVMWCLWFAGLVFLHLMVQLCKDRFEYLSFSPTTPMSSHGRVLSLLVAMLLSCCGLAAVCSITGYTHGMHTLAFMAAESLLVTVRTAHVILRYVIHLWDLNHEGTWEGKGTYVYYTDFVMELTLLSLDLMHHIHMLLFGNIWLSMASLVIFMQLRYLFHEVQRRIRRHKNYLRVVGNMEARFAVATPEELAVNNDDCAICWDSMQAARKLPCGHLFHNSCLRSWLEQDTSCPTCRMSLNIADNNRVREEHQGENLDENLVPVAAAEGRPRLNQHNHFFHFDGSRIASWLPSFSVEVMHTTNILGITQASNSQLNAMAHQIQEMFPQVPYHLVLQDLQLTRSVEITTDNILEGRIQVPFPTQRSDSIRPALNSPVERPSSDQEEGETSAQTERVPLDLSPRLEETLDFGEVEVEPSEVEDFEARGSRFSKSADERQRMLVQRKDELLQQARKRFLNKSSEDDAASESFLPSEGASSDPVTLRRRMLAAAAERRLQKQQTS
UniProt Q8IXI2: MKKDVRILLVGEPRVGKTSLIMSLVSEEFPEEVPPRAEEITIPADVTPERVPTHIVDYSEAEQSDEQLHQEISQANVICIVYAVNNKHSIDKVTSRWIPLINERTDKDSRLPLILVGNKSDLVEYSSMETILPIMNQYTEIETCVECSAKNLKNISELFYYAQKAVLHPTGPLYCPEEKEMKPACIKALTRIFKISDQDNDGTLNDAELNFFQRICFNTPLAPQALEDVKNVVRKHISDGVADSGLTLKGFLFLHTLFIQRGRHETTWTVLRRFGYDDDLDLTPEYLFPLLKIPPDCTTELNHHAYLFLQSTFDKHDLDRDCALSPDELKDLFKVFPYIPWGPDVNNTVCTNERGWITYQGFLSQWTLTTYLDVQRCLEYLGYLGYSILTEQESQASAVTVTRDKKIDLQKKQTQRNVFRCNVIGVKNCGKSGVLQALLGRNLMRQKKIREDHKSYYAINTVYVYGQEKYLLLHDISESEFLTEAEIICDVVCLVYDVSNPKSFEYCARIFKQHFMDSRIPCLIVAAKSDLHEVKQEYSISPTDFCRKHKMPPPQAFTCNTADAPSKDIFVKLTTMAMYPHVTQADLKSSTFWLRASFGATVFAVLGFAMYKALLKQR
UniProt O95831: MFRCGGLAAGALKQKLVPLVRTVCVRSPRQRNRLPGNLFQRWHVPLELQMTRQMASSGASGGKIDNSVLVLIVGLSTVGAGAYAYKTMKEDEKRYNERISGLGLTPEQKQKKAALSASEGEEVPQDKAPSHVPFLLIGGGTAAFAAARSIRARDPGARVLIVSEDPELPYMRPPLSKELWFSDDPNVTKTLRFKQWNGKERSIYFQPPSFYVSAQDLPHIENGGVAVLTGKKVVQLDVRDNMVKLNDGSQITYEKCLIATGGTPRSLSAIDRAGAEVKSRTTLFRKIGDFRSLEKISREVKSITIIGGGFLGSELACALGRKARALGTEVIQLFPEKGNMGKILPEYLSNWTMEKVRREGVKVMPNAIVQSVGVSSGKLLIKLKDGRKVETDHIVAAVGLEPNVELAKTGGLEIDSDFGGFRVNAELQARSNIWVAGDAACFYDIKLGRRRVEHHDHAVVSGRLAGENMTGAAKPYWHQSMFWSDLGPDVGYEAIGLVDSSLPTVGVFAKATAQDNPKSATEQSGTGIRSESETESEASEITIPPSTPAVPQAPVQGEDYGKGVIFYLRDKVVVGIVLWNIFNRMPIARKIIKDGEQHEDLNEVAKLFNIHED
UniProt O95292: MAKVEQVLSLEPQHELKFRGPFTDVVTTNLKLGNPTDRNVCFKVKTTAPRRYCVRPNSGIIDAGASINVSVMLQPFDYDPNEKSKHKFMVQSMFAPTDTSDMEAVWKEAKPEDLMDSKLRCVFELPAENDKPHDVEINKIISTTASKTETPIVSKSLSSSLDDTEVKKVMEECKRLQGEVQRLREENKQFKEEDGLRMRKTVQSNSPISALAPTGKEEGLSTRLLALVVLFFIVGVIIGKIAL

Sequences and labels used below:
T1: Strep II/FLAG (SF)-tagged human VLGR1_CTF (human) (UniProt Q8WXG9)
T1 sequence: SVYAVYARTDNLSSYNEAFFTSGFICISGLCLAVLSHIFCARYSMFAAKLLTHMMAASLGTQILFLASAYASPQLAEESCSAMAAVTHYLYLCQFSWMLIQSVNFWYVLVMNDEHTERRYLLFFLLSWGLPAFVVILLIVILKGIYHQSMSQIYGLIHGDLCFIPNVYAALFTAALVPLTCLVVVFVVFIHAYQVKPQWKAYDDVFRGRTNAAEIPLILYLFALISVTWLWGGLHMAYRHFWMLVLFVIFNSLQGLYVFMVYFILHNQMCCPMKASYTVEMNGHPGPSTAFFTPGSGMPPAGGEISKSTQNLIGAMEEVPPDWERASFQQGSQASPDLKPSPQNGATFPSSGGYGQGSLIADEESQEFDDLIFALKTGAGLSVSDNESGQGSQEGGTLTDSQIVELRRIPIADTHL

B1: Phosphatidylinositol glycan anchor biosynthesis, class N (enzyme, UniProt O95427 1-931)
chain: MLLFFTLGLLIHFVFFASIFDIYFTSPLVHGMTPQFTPLPPPARRLVLFVADGLRADALYELDENGNSRAPFIRNIIMHEGSWGISHTRVPTESRPGHVALIAGFYEDVSAVAKGWKENPVEFDSLFNESKYTWSWGSPDILPMFAKGASGDHVYTYSYDAKREDFGAQDATKLDTWVFDNVKDFFHHARNNQSLFSKINEEKIVFFLHLLGIDTNGHAHRPSSRDYKHNIKKVDDGVKEIVSMFNHFYGNDGKTTFIFTSDHGMTDWGSHGAGHPSETLTPLVTWGAGIKYPQRVSAQQFDDAFLKEWRLENWKRLDVNQADIAPLMTSLIGVPFPLNSVGILPVDYLNNTDLFKAESMFTNAVQILEQFKVKMTQKKEVTLPFLFTPFKLLSDSKQFNILRKARSYIKHRKFDEVVSLCKELIHLALKGLSYYHTYDRFFLGVNVVIGFVGWISYASLLIIKSHSNLIKGVSKEVKKPSHLLPCSFVAIGILVAFFLLIQACPWTYYVYGLLPLPIWYAVLREFQVIQDLVVSVLTYPLSHFVGYLLAFTLGIEVLVLSFFYRYMLTAGLTAFAAWPFLTRLWTRAKMTSLSWTFFSLLLAVFPLMPVVGRKPDISLVMGAGLLVLLLSLCVVTSLMKRKDSFIKEELLVHLLQVLSTVLSMYVVYSTQSSLLRKQGLPLMNQIISWATLASSLVVPLLSSPVLFQRLFSILLSLMSTYLLLSTGYEALFPLVLSCLMFVWINIEQETLQQSGVCCKQKLTSIQFSYNTDITQFRQLYLDDIRRAFFLVFFLVTAFFGTGNIASINSFDLASVYCFLTVFSPFMMGALMMWKILIPFVLVMCAFEAVQLTTQLSSKSLFLIVLVISDIMALHFFFLVKDYGSWLDIGTSISHYVIVMSMTIFLVFLNGLAQLLTTKKLRLCGKPKSHFM
B2: PTDSS2 (phosphatidylserine synthase) (enzyme, UniProt Q9BVG9 1-487)
chain: MRRGERRDAGGPRPESPVPAGRASLEEPPDGPSAGQATGPGEGRRSTESEVYDDGTNTFFWRAHTLTVLFILTCTLGYVTLLEETPQDTAYNTKRGIVASILVFLCFGVTQAKDGPFSRPHPAYWRFWLCVSVVYELFLIFILFQTVQDGRQFLKYVDPKLGVPLPERDYGGNCLIYDPDNETDPFHNIWDKLDGFVPAHFLGWYLKTLMIRDWWMCMIISVMFEFLEYSLEHQLPNFSECWWDHWIMDVLVCNGLGIYCGMKTLEWLSLKTYKWQGLWNIPTYKGKMKRIAFQFTPYSWVRFEWKPASSLRRWLAVCGIILVFLLAELNTFYLKFVLWMPPEHYLVLLRLVFFVNVGGVAMREIYDFMDDPKPHKKLGPQAWLVAAITATELLIVVKYDPHTLTLSLPFYISQCWTLGSVLALTWTVWRFFLRDITLRYKETRWQKWQNKDDQGSTVGNGDQHPLGLDEDLLGPGVAEGEGAPTPN
B3: ERGIC-53 (protein, UniProt P49257 31-510)
chain: DGVGGDPAVALPHRRFEYKYSFKGPHLVQSDGTVPFWAHAGNAIPSSDQIRVAPSLKSQRGSVWTKTKAAFENWEVEVTFRVTGRGRIGADGLAIWYAENQGLEGPVFGSADLWNGVGIFFDSFDNDGKKNNPAIVIIGNNGQIHYDHQNDGASQALASCQRDFRNKPYPVRAKITYYQNTLTVMINNGFTPDKNDYEFCAKVENMIIPAQGHFGISAATGGLADDHDVLSFLTFQLTEPGKEPPTPDKEISEKEKEKYQEEFEHFQQELDKKKEEFQKGHPDLQGQPAEEIFESVGDRELRQVFEGQNRIHLEIKQLNRQLDMILDEQRRYVSSLTEEISKRGAGMPGQHGQITQQELDTVVKTQHEILRQVNEMKNSMSETVRLVSGMQHPGSAGGVYETTQHFIDIKEHLHIVKRDIDNLVQRNMPSNEKPKCPELPPFPSCLSTVHFIIFVVVQTVLFIGYIMYRSQQEAAAKKFF
B4: ER resident protein 44 (protein, UniProt Q9BS26 30-406)
chain: EITSLDTENIDEILNNADVALVNFYADWCRFSQMLHPIFEEASDVIKEEFPNENQVVFARVDCDQHSDIAQRYRISKYPTLKLFRNGMMMKREYRGQRSVKALADYIRQQKSDPIQEIRDLAEITTLDRSKRNIIGYFEQKDSDNYRVFERVANILHDDCAFLSAFGDVSKPERYSGDNIIYKPPGHSAPDMVYLGAMTNFDVTYNWIQDKCVPLVREITFENGEELTEEGLPFLILFHMKEDTESLEIFQNEVARQLISEKGTINFLHADCDKFRHPLLHIQKTPADCPVIAIDSFRHMYVFGDFKDVLIPGKLKQFVFDLHSGKLHREFHHGPDPTDTAPGEQAQDVASSPPESSFQKLAPSEYRYTLLRDRDEL
B5: Glucose-6-phosphatase 3 (enzyme, UniProt Q9BUM1 1-346)
chain: MESTLGAGIVIAEALQNQLAWLENVWLWITFLGDPKILFLFYFPAAYYASRRVGIAVLWISLITEWLNLIFKWFLFGDRPFWWVHESGYYSQAPAQVHQFPSSCETGPGSPSGHCMITGAALWPIMTALSSQVATRARSRWVRVMPSLAYCTFLLAVGLSRIFILAHFPHQVLAGLITGAVLGWLMTPRVPMERELSFYGLTALALMLGTSLIYWTLFTLGLDLSWSISLAFKWCERPEWIHVDSRPFASLSRDSGAALGLGIALHSPCYAQVRRAQLGNGQKIACLVLAMGLLGPLDWLGHPPQISLFYIFNFLKYTLWPCLVLALVPWAVHMFSAQEAPPIHSS
B6: B-cell receptor-associated protein 31 (protein, UniProt P51572 1-246)
chain: MSLQWTAVATFLYAEVFVVLLLCIPFISPKRWQKIFKSRLVELLVSYGNTFFVVLIVILVLLVIDAVREIRKYDDVTEKVNLQNNPGAMEHFHMKLFRAQRNLYIAGFSLLLSFLLRRLVTLISQQATLLASNEAFKKQAESASEAAKKYMEENDQLKKGAAVDGGKLDVGNAEVKLEEENRSLKADLQKLKDELASTKQKLEKAENQVLAMRKQSEGLTKEYDRLLEEHAKLQAAVDGPMDKKEE
B7: Lysocardiolipin acyltransferase 1 (enzyme, UniProt Q6UWP7 1-414)
chain: MHSRGREIVVLLNPWSINEAVSSYCTYFIKQDSKSFGIMVSWKGIYFILTLFWGSFFGSIFMLSPFLPLMFVNPSWYRWINNRLVATWLTLPVALLETMFGVKVIITGDAFVPGERSVIIMNHRTRMDWMFLWNCLMRYSYLRLEKICLKASLKGVPGFGWAMQAAAYIFIHRKWKDDKSHFEDMIDYFCDIHEPLQLLIFPEGTDLTENSKSRSNAFAEKNGLQKYEYVLHPRTTGFTFVVDRLREGKNLDAVHDITVAYPHNIPQSEKHLLQGDFPREIHFHVHRYPIDTLPTSKEDLQLWCHKRWEEKEERLRSFYQGEKNFYFTGQSVIPPCKSELRVLVVKLLSILYWTLFSPAMCLLIYLYSLVKWYFIITIVIFVLQERIFGGLEIIELACYRLLHKQPHLNSKKNE

Results are given in words; binding and its absence hold for the method and conditions named. In cells and extracts the contact can be indirect. A yes stands for co-enrichment or nearness to the bait. Other partners may have been found. Where a sequence is shown, tags or fusion partners need not be part of it.

This assay addresses T1, Strep II/FLAG (SF)-tagged human VLGR1_CTF (human). Briefly: affinity purification with mass spectrometry; tandem affinity purification (Strep-Tactin Superflow, then anti-FLAG M2 agarose; elution with desthiobiotin and FLAG peptide) of N- and C-terminally SF-tagged VLGR1_CTF expressed 48 h in HEK293T cells; LC-MS/MS; preys of mock and RAF1 TAPs excluded; N- and C-tagged baits pooled.
As to “Autocrine motility factor receptor (from UniProt Q9UKV5 1-643)”, the binding result is recorded as “binds”.

“Mitochondrial Rho GTPase 1 (from UniProt Q8IXI2 1-618)”: the binding entry was “binds”.

For “Mitochondrial apoptosis-inducing factor 1 (from UniProt O95831)”, the binding entry was “binds”.

“Presenilin-2 (from UniProt P49810 1-448)”: the binding entry was “binds”.

In the case of “vesicle-associated membrane protein-associated protein B (from UniProt O95292 1-243)”, the binding result is listed as “binds”.

On to B1, for which the binding result is “binds”.

Regarding B2, the binding entry is “binds”.

Turning to B3, the binding result is “binds”.

Turning to B4, the binding result is recorded as “binds”.

Turning to B5, the binding entry is reported as “binds”.

B6: the binding result was “binds”.

In the case of B7, the binding entry is listed as “binds”.
